Values of other authors, collected in US4521406A, “Antitumor agent” (priority 1980, dated 1985).
At least one structure is not confirmed: it was looked up by name or label, or the drawing left a doubt.

System: tumor
Details: general statement; cited from earlier work

## O=c1[nH]c(=O)n(C2CCCO2)cc1F (stereo not shown) [tetrahydrofuryl 5-fluorouracil]
  antitumor activity: antitumor activity is also low
